Experimental data from the supplement of paper PMC4604168 (melanoma cell lines).
Some of the results follow. Single values are uncertain, as repeats are few or missing.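 The apoptosis fraction was the count of cleaved-PARP antibody-stained nuclei relative to all DNA-stained nuclei, imaged in 1,536-well plates. Screening doses were set so most cells survived, and baseline and induced cleaved-PARP levels vary greatly across cell lines.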

These compounds were tested on SkMel28 (assay: cleaved PARP positive nuclei fraction relative to DMSO control; melanoma cells; higher = more apoptosis). Details: library dose: low library concentration; 72 h.

SMILES	cleaved PARP positive nuclei fraction
Cn1cnc2c(F)c(Nc3ccc(Br)cc3Cl)c(C(=O)NOCCO)cc21 [selumetinib] + Cn1nnc2c(C(N)=O)ncn2c1=O [temozolomide] (first compound 0.015 µM, partner dose 2 µM)	122%
C[C@]1(O)C[C@@H](c2nc(-c3ccc4ccc(-c5ccccc5)nc4c3)c3c(N)nccn32)C1 + CS(=O)(=O)c1ccc(C(=O)Nc2ccc(Cl)c(-c3ccccn3)c2)c(Cl)c1 [vismodegib] (first compound 0.4 µM, partner dose 1 µM)	82.7%
C[C@]1(O)C[C@@H](c2nc(-c3ccc4ccc(-c5ccccc5)nc4c3)c3c(N)nccn32)C1 + Cc1cc(Nc2cc(N3CCN(C)CC3)nc(/C=C/c3ccccc3)n2)n[nH]1 [ENMD2076] (first compound 0.4 µM, partner dose 0.04 µM)	78.9%
Cn1cnc2c(F)c(Nc3ccc(Br)cc3Cl)c(C(=O)NOCCO)cc21 [selumetinib] + O=C(O)[C@@H]1[O][Sb](=[O])([O][Sb]2(=[O])[O][C@H]([C@H](O)CO)[C@H](O)[C@H](C(=O)O)[O]2)[O][C@H]([C@H](O)CO)[C@@H]1O [stibogluconate] (first compound 0.015 µM, partner dose 2 µM)	89.9%
Cn1cnc2c(F)c(Nc3ccc(Br)cc3Cl)c(C(=O)NOCCO)cc21 [selumetinib] + CCN(CC)CCNC(=O)c1c(C)[nH]c(/C=C2\C(=O)Nc3ccc(F)cc32)c1C [sunitinib] (first compound 0.015 µM, partner dose 0.4 µM)	124%
Cn1sc(=O)n(Cc2ccccc2)c1=O + CN(c1ncccc1CNc1nc(Nc2ccc3c(c2)CC(=O)N3)ncc1C(F)(F)F)S(C)(=O)=O [PF562271] (first compound 0.4 µM, partner dose 0.08 µM)	36.9%
CC1(C)CCC(c2ccc(Cl)cc2)=C(CN2CCN(c3ccc(C(=O)NS(=O)(=O)c4ccc(N[C@H](CCN5CCOCC5)CSc5ccccc5)c(S(=O)(=O)C(F)(F)F)c4)cc3)CC2)C1 + OCc1c[nH]c2ccccc12 [Indole-3-carbinol] (first compound 0.4 µM, partner dose 0.8 µM)	46.2%
CC(=O)O[C@@]12CO[C@@H]1C[C@H](O)[C@@]1(C)C(=O)[C@H](O)C3=C(C)[C@@H](OC(=O)[C@H](O)[C@@H](NC(=O)OC(C)(C)C)c4ccccc4)C[C@@](O)([C@@H](OC(=O)c4ccccc4)[C@H]21)C3(C)C [Docetaxel] + NC1(c2ccc(-c3nc4ccn5c(=O)[nH]nc5c4cc3-c3ccccc3)cc2)CCC1 [MK2206] (first compound 0.0001 µM, partner dose 0.4 µM)	684%
C[C@]1(O)C[C@@H](c2nc(-c3ccc4ccc(-c5ccccc5)nc4c3)c3c(N)nccn32)C1 + Nc1cccc2c1CN(C1CCC(=O)NC1=O)C2=O [lenalidomide] (first compound 0.4 µM, partner dose 1 µM)	329%
C[C@@H](N)c1ccc(C(=O)Nc2ccnc3[nH]ccc23)cc1 + C=CCNC1=C2C[C@@H](C)C[C@H](OC)[C@H](O)[C@@H](C)/C=C(\C)[C@H](OC(N)=O)[C@@H](OC)/C=C\C=C(/C)C(=O)NC(=CC1=O)C2=O [Tanespimycin] (first compound 0.4 µM, partner dose 0.002 µM)	30.9%

A section from further up, for reference:
SMILES	cleaved PARP positive nuclei fraction
C[C@]1(O)C[C@@H](c2nc(-c3ccc4ccc(-c5ccccc5)nc4c3)c3c(N)nccn32)C1 + Nc1cccc2c1CN(C1CCC(=O)NC1=O)C2=O [lenalidomide] (first compound 0.4 µM, partner dose 1 µM)	329%
C[C@@H](N)c1ccc(C(=O)Nc2ccnc3[nH]ccc23)cc1 + C=CCNC1=C2C[C@@H](C)C[C@H](OC)[C@H](O)[C@@H](C)/C=C(\C)[C@H](OC(N)=O)[C@@H](OC)/C=C\C=C(/C)C(=O)NC(=CC1=O)C2=O [Tanespimycin] (first compound 0.4 µM, partner dose 0.002 µM)	30.9%
